Measurements from PubChem BioAssay AID1347426 (Functional Genomics Laboratory (NCATS/FGL), 2020).
Out of some 31,000 sequences screened, about 1,400 (4.5%) were called active.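 How the source made its calls: active means median seed-adjusted z-score above 1 or below -1; inactive means the rest.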 Some of the results follow.

experiment: Novel Modifiers of Survival Motor Neuron (SMN) Protein: Gene Identification via Genome-wide siRNA Screen; conditions: HEK293T SMN2-luciferase reporter, siRNA knockdown, 72 h; actives lie on both sides;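 further: luminescence tracks full-length SMN protein made from the SMN2 reporter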
Summary of the method: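 Luciferase signal, proportional to full-length SMN made from an SMN2 cDNA reporter in stable HEK293T cells, was read 72 h after siRNA reverse transfection. Values were expressed as MAD scores after non-targeting-control normalization and log10 conversion; seed analysis flagged off-targets.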

Row | Sequence | median seed-adjusted z-score
1 | GCAAGAGACCCUCAACAGATT against KIR2DL4 | inactive: -0.271
2 | CAAGAAUGUCUAUAAUGCATT against BACH2 | inactive: 0
3 | GCACAAUUGAGAUACAGGUTT against PCDHA5 | inactive: 0.671
4 | CCAGCAGCGUGACGAUACUTT against AZU1 | inactive: 0.349
5 | CAAAUACGAUUAUCCACUUTT against SLC26A3 | inactive: -0.506
6 | AAUUCUUUAUGAAUGCAAATT against ING3 | inactive: 0.192
7 | GCAAAUACCUGAUCUGCAATT against ANKK1 | inactive: -0.288
8 | GCCUACAAGCAGAUUCAAATT against PTRH2 | inactive: 0.0467
9 | GCUGUAAAGAUACAUCUCATT against ENPP1 | inactive: -0.273
10 | CAACAGACCUUGCACUCAATT against SCYL3 | inactive: 0.665
11 | GCCGAGAACUUCACUCUUUTT against P2RX1 | inactive: 0.908
12 | GAGGCUGACUUCUACCAGATT against KCTD11 | inactive: 0.374
13 | CUAUAGUCCUGCCUACUUATT against CRTC2 | inactive: -0.691
14 | GGAGCAUCAGAGAUUGAUATT against STAMBPL1 | inactive: 0.13
15 | CCGUGAGAGUUCCAACUUUTT against HDAC6 | inactive: 0.0457
16 | AGAUGGAGUUUGAUCCUAATT against POLR2G | active: -4.19
17 | UGGUCAACGUGGACAUGAATT against PLCD3 | inactive: 0.228
18 | CAGUGAAACUAAGUAAUAUTT against GSTA4 | inactive: -0.848
19 | GAAGGGCCGUAUUGAGUUUTT against ABCB6 | inactive: -0.359
20 | CCUAGGAGUUUGCUACAUATT against BBS4 | inactive: -0.0339
21 | GAAUUAUGUCAGCAACGUATT against FER | inactive: 0
22 | CGCCAGACGUUUUCCAUCATT against AZU1 | inactive: 0.349

Row | Sequence | median seed-adjusted z-score
23 | GAAUCCACCCAGAUUUACATT against NEK4 | inactive: -0.076
24 | GGACCUUAUUCACCAGUUATT against PLK4 | inactive: -0.0888
25 | GGAUAUAACCAGUUUCCUUTT against CYP2U1 | inactive: 0.144
26 | GGACUUAUCUGAGUAUAGUTT against ITGA3 | inactive: 0
27 | GGUGUCGGAUGAUUUAUCATT against MYRIP | inactive: 0.141
28 | GGAUUCGAGUCAUCAAGAATT against CPXM1 | inactive: 0.147
29 | GGAUCUACCUGAAUAACAATT against MSRB2 | inactive: 0.373
30 | GGAACGUGCUCAUCUGUGATT against PDGFRB | inactive: -0.709
31 | AGGUACUUCUACUCCCGAATT against LGALS3BP | inactive: 0.187
32 | CCUUGUCUUUGGGUAAUCATT against GPR128 | inactive: -0.208
33 | GCUGCUACAUGGUAUUACUTT against TG | inactive: 0.0137
34 | CAGGAUCUACGAUAAGGUATT against ACSL5 | inactive: 0.109
35 | ACCCUGCCCACAUAUCUUATT against PRSS22 | inactive: -0.565
36 | CCUCAAGAGAUGAUUGAUATT against B3GNT2 | inactive: -0.0427
37 | CGAUGACCAUCGACUGGAATT against SLC25A25 | inactive: -0.668
38 | GGGCCCUAGUGAACUGUCATT against EXOSC4 | inactive: 0.443
39 | GAUCGAAUCUUUAAGGUCUTT against EIF2C1 | inactive: 0.215
40 | GCACAACUGUAGAGACAGATT against CIDEC | inactive: 0.189
41 | GGCUAUGUGGUGAACCUUUTT against SORL1 | inactive: 0.357
42 | GCCUCUCAGGGAAAGAGUATT against SEMA4F | inactive: 0.139
43 | CCAACUUGAUUAUGAUGUUTT against ZFP91 | inactive: 0.0597
44 | GGAAGAUCACAUUAGUAAATT against GKAP1 | inactive: -0.119

Row | Sequence | median seed-adjusted z-score
45 | GCUCCUUAUUGAACAGUUUTT against SLC16A12 | inactive: 0.0219
46 | CCUUAGAAAGUUUCAAUUATT against TADA2L | inactive: 0.0455
47 | UCUUAUCCUUUGUCGCAGATT against LMO3 | inactive: 0.496
48 | GCCGGAGUGUUGAAUUAGATT against PLCL2 | inactive: 0.393
49 | GGAUAUUGCAGAUAAUCCATT against STYX | inactive: 0.694
50 | GGCUUGUAGGUGGAACUAATT against CD163L1 | inactive: 0.353
51 | GCUCUGUACAGGAAACUCUTT against IL2RA | inactive: 0.587
52 | CUACCGCAUCAGUAACAGATT against DDX21 | inactive: -0.251
53 | GCAUUCUGUUAGACAGUGATT against ST8SIA4 | inactive: -0.309
54 | GCAUCGUGAUGGUGACACUTT against DPEP3 | inactive: 0.95
55 | CCGUCACCCUUAUCAGCAATT against PTPRG | inactive: 0.0697
56 | CCUGGAUACCCUAAGCAAATT against PSMD2 | active: -1.44
57 | CAAGCUCUGCGGAAAUCAATT against SPSB2 | inactive: -0.741
58 | CCCUACAUAGGAAACCUGUTT against PKD1L2 | active: -1.17
59 | ACAGGAUACCCAACUUUAATT against MTHFSD | inactive: -0.298
60 | GAAGGGCCUUUUUAUCCAATT against MCTS1 | inactive: 0.116
61 | CCUGCUAGCUGAGAACGAATT against RPUSD2 | inactive: -0.215
62 | GGAUAGCGACUAUAAUCCATT against ZNF335 | inactive: -0.305
63 | CGACCGUCCUGAAUUCUAATT against BAI1 | inactive: -0.663
64 | GCUCAUCCCUGUGCAUGGUTT against LY6G5B | active: -1.29
65 | CGUUCACCUUCAUGAGGGATT against OBP2B | inactive: -0.642
66 | CUACCUCCUGAAUAUGAUATT against ZNF567 | inactive: -0.114

Quoted from the listing:
In median seed-adjusted z-score, CAAGCUCUGCGGAAAUCAATT against SPSB2 reads inactive: -0.741
In median seed-adjusted z-score, CCAGCAGCGUGACGAUACUTT against AZU1 reads inactive: 0.349
In median seed-adjusted z-score, CCAACUUGAUUAUGAUGUUTT against ZFP91 reads inactive: 0.0597
In median seed-adjusted z-score, GAAGGGCCGUAUUGAGUUUTT against ABCB6 reads inactive: -0.359
In median seed-adjusted z-score, GGGCCCUAGUGAACUGUCATT against EXOSC4 reads inactive: 0.443
In median seed-adjusted z-score, GCUGCUACAUGGUAUUACUTT against TG reads inactive: 0.0137

(further entries)

Row | Sequence | median seed-adjusted z-score
67 | CAUCAGUGGUUGGAGACCATT against RNF185 | inactive: -0.388
68 | AGUUCUCAGCGAAAAAGAATT against CETN2 | inactive: -0.0139
69 | GCAUAACUGUAACAGAGAATT against RPP30 | inactive: -0.656
70 | GGGUUGAAACCUUAUGAAUTT against ZNF33B | inactive: -0.279
71 | CCGAGGCAAUGAUUCGUGUTT against CASD1 | inactive: 0.202
72 | GCGGCAGAGUCAAAUACAATT against GATAD2A | inactive: -0.715
73 | GAGCUGACCCGAAACAAGATT against CLP1 | inactive: -0.372
74 | GCCCAAGUGUGAAGACUGUTT against SIRT2 | inactive: 0.727
75 | AGGCGGUGCUUGUUCCUCATT against TNF | inactive: -0.138
76 | CAUCUGAACUCGAUGGAGATT against PTH | inactive: 0
77 | GAAGAAUACAAACAGCAAUTT against CRCP | inactive: 0
78 | CGGAGGUGACUGACAGAUATT against CAMKV | inactive: -0.193
79 | ACAUAACCGUUCUUCGAGATT against GTPBP2 | inactive: -0.166
80 | UCUUCUCUGUUAUCAAUAUTT against APH1A | inactive: 0.741
81 | GGAUCAUGCUGAGAUGCAATT against RASAL2 | inactive: 0
82 | CAGAGUGGUUUGUUACAGATT against TXNRD3 | inactive: 0.69
83 | GCAGACCUAUCACAAGUUUTT against GLUD1 | inactive: 0.156
84 | GUAGUUUCUUUAGAGAAUATT against ATP7A | inactive: 0
85 | CAUCGAUAUUAGCAAAGGATT against ACE2 | inactive: -0.164
86 | GGAAUAAAUUGGUCUGAAATT against APOL5 | inactive: -0.209
87 | GCAUCAGUCAGUUGCAAAATT against CYP7B1 | inactive: 0.598
88 | CGGCAAAGAGUGGUCGGAATT against HOXA10 | inactive: -0.112

Row | Sequence | median seed-adjusted z-score
89 | CCAGCACGGGAAUUCUAGATT against SGSH | inactive: 0.383
90 | CACUCCAAGUAGCACAUUUTT against CES2 | inactive: -0.47
91 | GCAAAGACCCAAACCUACATT against SORBS2 | inactive: 0.0391
92 | GGCUUCUUCUAUUCAAUUUTT against BCL6B | inactive: 0
93 | GGACCUUAUUUAUCAGCUUTT against NCOA4 | inactive: -0.0638
94 | AAAUGGUAAUUGUUGCUAATT against THBD | inactive: -0.16
95 | CAUGCACACGUGAUCCAGATT against ZDHHC11 | inactive: -0.098
96 | AGAAUUCCAUCAACCUGAUTT against ADAMTS8 | inactive: 0.115
97 | GUCUACUACUGGUCGGAGATT against GABRD | inactive: 0.428
98 | GUGAUACAGUGAUAAGUCATT against PTGR2 | inactive: 0.14
99 | CCUCGAUAUUUUAACCUUUTT against EID2 | active: -1.04
100 | CACUGUCCCAAUUCUAAUUTT against GDA | inactive: -0.406
101 | GGAUUUUCCGAAUUCUAAATT against KCNS3 | inactive: 0.103
102 | GCUUGCUAAAGGAACGGAATT against NEK2 | inactive: -0.276
103 | GGACCAUGCUUGCUUCGUUTT against LARP6 | inactive: 0.0335
104 | GGAGUUUGAGGAGCUCAUUTT against SDF4 | inactive: -0.422
105 | GCGAGACCAAGUACCGUAATT against NRAP | inactive: -0.205
106 | GCCUUAAAGAGUCUCGACATT against SRrp35 | inactive: -0.0574
107 | GCUAUUUAAGAGUUUCAGATT against RCAN2 | inactive: -0.185
108 | CAUUCCGUCUUGGUGAUUATT against RANBP6 | inactive: -0.696
